# Measured values reported in PubChem BioAssay (NCATS).
# Inconclusive results, whose numbers are uncertain, are shown with a selection of clear calls. Potencies of inconclusive entries are doubtful fits and often do not repeat. Active and inactive are the calls of the source. Calls come from the whole dose curve; as a rule, active = well fitted cell-killing curve with a large enough effect; inconclusive = small, poorly fitted or top-dose-only effect, or effect the other way; inactive = no such curve, though single readings can be large or run the other way.
# Key:
# [1] = Quantitative High-Throughput drug screen in 47 multiple myeloma cell lines against the NCATS MIPE library collection: KHM11_PLB cell viability assay (AID 1918962); settings: KHM11 myeloma cell viability, CellTiter-Glo ATP luminescence, 48 h; viability, % of DMSO control: at 45.8 µM (top of the series) unless noted; note: nearly all actives have a fitted effect of over 35% in size;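 for viability, % of DMSO control: 0% = media only wells and 100% = DMSO treated cells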
# Method in brief: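 Inhibition of cell viability is measured here. Each line was plated at 500 cells per well, treated with MIPE 4.0 drugs, kept 48 hours at 37C, then assayed for ATP content by CellTiter-Glo luminescence.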
# [2] = Quantitative High-Throughput drug screen in 47 multiple myeloma cell lines against the NCATS MIPE library collection: JIM1_ECACC cell viability assay (AID 1918964); settings: JIM1 myeloma viability, CellTiter-Glo ATP luminescence, 48 h; viability (% of DMSO): at 45.8 µM (top of the series)
# Method in brief: (§1)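 Viability readout: CellTiter-Glo luminescence following 5 min room-temperature incubation with reagent. Prior exposure: 48 h, 37C, humidified 5% CO2, 500 cells per well.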
# [3] = Quantitative High-Throughput drug screen in 47 multiple myeloma cell lines against the NCATS MIPE library collection: INA6_PLB cell viability assay (AID 1918965; note: nearly all actives have a fitted effect of over 55% in size;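 for viability (% of control): 100% = DMSO-only wells and 0% = media-only wells without cells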); settings: INA6 myeloma viability, CellTiter-Glo ATP luminescence, 48 h; viability (% of control): at 45.8 µM (top of the series) unless noted
# Method in brief: (§2)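 qHTS of the MIPE 4.0 collection: 500 myeloma cells/well, 48 h drug exposure at 37C in 5% CO2, then CellTiter-Glo for 5 min at room temperature before luminescence reading.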
# [4] = Quantitative High-Throughput drug screen in 47 multiple myeloma cell lines against the NCATS MIPE library collection: Karpas25_ECACC cell viability assay (AID 1918968; note: nearly all actives have a fitted effect of over 35% in size;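 for viability (% of control): 100% = DMSO only wells and 0% = media only wells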); settings: Karpas25 myeloma viability, CellTiter-Glo ATP, 48 h; series mostly up to 45.8 µM
# Method in brief: as §1
# [5] = Quantitative High-Throughput drug screen in 47 multiple myeloma cell lines against the NCATS MIPE library collection: KMS27_JCRB cell viability assay (AID 1918970); settings: KMS27 myeloma cells, CellTiter-Glo ATP viability, 48 h; viability (% of DMSO): at 45.8 µM (top of the series); note: nearly all actives have a fitted effect of over 30% in size
# Method in brief: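 Luminescent ATP read-out (CellTiter-Glo, 5 min at room temperature) after 48 h compound exposure of 500 KMS27_JCRB cells per well; DMSO wells define full viability and media-only wells zero.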
# [6] = Quantitative High-Throughput drug screen in 47 multiple myeloma cell lines against the NCATS MIPE library collection: KMS12BM_JCRB cell viability assay (AID 1918971); settings: KMS12BM myeloma viability, CellTiter-Glo ATP, 48 h; viability, % of DMSO: at 45.8 µM (top of the series); note: nearly all actives have a fitted effect of over 35% in size;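 for viability, % of DMSO: 100% = DMSO-only wells and 0% = media-only wells without cells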
# Method in brief: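 Relative luminescence from CellTiter-Glo served as the viability signal, referenced to DMSO-treated (100%) and cell-free medium (0%) controls. Treatment lasted 48 hours at 37C with 500 cells per well.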
# [7] = Quantitative High-Throughput drug screen in 47 multiple myeloma cell lines against the NCATS MIPE library collection: JJN3_DSMZ cell viability assay (AID 1918966; note: nearly all actives have a fitted effect of over 50% in size); settings: JJN3 myeloma cells viability, CellTiter-Glo ATP, 48 h; series mostly up to 45.8 µM
# Method in brief: as §1
# [8] = Quantitative High-Throughput drug screen in 47 multiple myeloma cell lines against the NCATS MIPE library collection: KMS12PE_JCRB cell viability assay (AID 1918972); settings: KMS12PE myeloma viability, CellTiter-Glo ATP, 48 h; viability: at 45.8 µM (top of the series); note: nearly all actives have a fitted effect of over 30% in size;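 for viability: 100% = DMSO only wells and 0% = wells with media alone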
# Method in brief: as §2
# [9] = Quantitative High-Throughput drug screen in 47 multiple myeloma cell lines against the NCATS MIPE library collection: H1112_PLB cell viability assay (AID 1918967; note: nearly all actives have a fitted effect of over 30% in size); settings: H1112 myeloma cells viability, ATP luminescence, 48 h; series mostly up to 45.8 µM
# Method in brief: as §1
# Potency is the fitted concentration of half-maximal effect.
Structure (SMILES),Potency [1],Potency [2],Potency [3],Potency [4],Potency [5],Potency [6],Potency [7],Potency [8],Potency [9],"viability, % of DMSO control [1]",viability (% of control) [3]
COCC(=O)NCC=Cc1ccc2ncnc(Nc3ccc(Oc4ccc(C)nc4)c(C)c3)c2c1,"inconclusive: 14.8 µM [cytotoxic, partial curve]",active: 16.6 µM,active: 10.5 µM,active: 6.62 µM,"inconclusive: 26.4 µM [cytotoxic, partial curve, poor fit]","inconclusive: 4.69 µM [cytotoxic, partial curve, poor fit]",,,,,
Cc1cc(-c2nnc3n2CCCCC3)c(C)n1-c1ccccc1,"inconclusive: 0.0042 µM [rising, full curve, poor fit]","inconclusive: 16.6 µM [cytotoxic, partial curve, poor fit]",inactive,,,"inconclusive: 14.8 µM [cytotoxic, partial curve, poor fit]","inconclusive: 11.8 µM [cytotoxic, partial curve, poor fit]",active: 20.9 µM,,,
Cc1ccc2c(c1)c1c(n2CCc2ccc(C)nc2)CCN(C)C1,"inconclusive: 0.0296 µM [rising, full curve, poor fit]",inactive,"inconclusive: 0.0526 µM [rising, full curve, poor fit]","inconclusive: 37.2 µM [cytotoxic, single point]",,"inconclusive: 26.4 µM [cytotoxic, single point]",,"inconclusive: 118 µM [cytotoxic, partial curve, poor fit]",,,
CC(=O)NC[C@H]1CN(c2ccc(N3CCOCC3)c(F)c2)C(=O)O1,"inconclusive: 2.96 µM [cytotoxic, full curve, poor fit]","inconclusive: 0.469 µM [cytotoxic, full curve, poor fit]",inactive,,,"inconclusive: 10.5 µM [cytotoxic, partial curve, poor fit]","inconclusive: 2.35 µM [cytotoxic, partial curve, poor fit]",inactive,,,
O=c1ncn2nc(Sc3ccc(F)cc3F)ccc2c1-c1c(Cl)cccc1Cl,"inconclusive: 3.32 µM [rising, full curve, poor fit]",inactive,active: 4.18 µM,,active: 18.7 µM,,"inconclusive: 16.6 µM [cytotoxic, partial curve, poor fit]","inconclusive: 14.8 µM [cytotoxic, partial curve]",,,
CC[C@H]1OC(=O)[C@H](C)[C@@H](O[C@H]2C[C@@](C)(OC)[C@@H](O)[C@H](C)O2)[C@H](C)[C@@H](O[C@@H]2O[C@@H](C)C[C@H](N(C)C)[C@@H]2O)[C@](C)(O)C[C@@H](C)C(=O)[C@H](C)[C@@H](O)[C@]1(C)O,inactive,inactive,"inconclusive: 1.32 µM [rising, full curve, poor fit]","inconclusive: 16.6 µM [cytotoxic, partial curve, poor fit]",,"inconclusive: 0.0017 µM [rising, full curve]",,inactive,,,
C[C@@H](Cc1cc2c(c(C(N)=O)c1)N(CCCO)CC2)NCCOc1ccccc1OCC(F)(F)F,inactive,inactive,"inconclusive: 23.5 µM [cytotoxic, partial curve, poor fit]",,,"inconclusive: 0.0013 µM [rising, full curve, poor fit]",inactive,"inconclusive: 23.5 µM [cytotoxic, partial curve, poor fit]",,,
CC1=C(C(=O)Nc2cc3cn[nH]c3cc2F)C(c2ccc(C(F)(F)F)cc2)CC(=O)N1 (stereo not given),inactive,"inconclusive: 0.0066 µM [rising, full curve, poor fit]",,"inconclusive: 33.2 µM [cytotoxic, single point]","inconclusive: 0.0209 µM [cytotoxic, full curve, poor fit]","inconclusive: 0.0209 µM [rising, full curve, poor fit]",inconclusive: 0.001 µM,,inactive,,
CC(C)(Oc1ccc(C2CC2(Cl)Cl)cc1)C(=O)O (stereo not given),,"inconclusive: 0.303 µM [rising, full curve, poor fit]",,"inconclusive: 34 µM [cytotoxic, partial curve, poor fit]","inconclusive: 9.59 µM [rising, partial curve, poor fit]",inactive,"inconclusive: 0.003 µM [cytotoxic, full curve, poor fit]",,inactive,inconclusive: 125% [cytotoxic] [at 92.2 µM],
CCC[C@H]1C[C@H](C(=O)N[C@@H]([C@@H]2O[C@@H](SC)[C@@H](O)[C@@H](O)[C@@H]2O)[C@H](C)Cl)N(C)C1,inactive,"inconclusive: 0.0118 µM [rising, full curve, poor fit]","inconclusive: 3.32 µM [cytotoxic, full curve, poor fit]",,,"inconclusive: 0.003 µM [rising, full curve, poor fit]","inconclusive: 0.0042 µM [rising, full curve]",,,,
CCCCC(=O)O[C@]1(C(=O)CO)[C@@H](C)C[C@H]2[C@@H]3CCC4=CC(=O)C=C[C@]4(C)[C@@]3(F)[C@@H](O)C[C@@]21C,inactive,"inconclusive: 16.6 µM [cytotoxic, partial curve, poor fit]","inconclusive: 10.5 µM [cytotoxic, partial curve, poor fit]",,,inactive,,"inconclusive: 18.7 µM [cytotoxic, partial curve]","inconclusive: 0.0148 µM [rising, full curve, poor fit]",,
CCN(CC)CCOc1ccc(Nc2ncc3cc(-c4c(Cl)cccc4Cl)c(=O)n(C)c3n2)cc1,active: 1.32 µM,active: 0.0833 µM,,,,active: 2.35 µM,"inconclusive: 7.43 µM [cytotoxic, partial curve, poor fit]",,,,inconclusive: 3.81% [cytotoxic]
Cc1cccc(-c2[nH]c(C(C)(C)C)nc2-c2ccc3c(c2)OCO3)n1,active: 1.18 µM,active: 6.62 µM,,,,,active: 14.8 µM,,active: 1.32 µM,,
CC(=O)O[C@@]12CO[C@H]1C[C@H](O)[C@@]1(C)C(=O)[C@H](O)C3=C(C)[C@@H](OC(=O)C(O)[C@@H](NC(=O)OC(C)(C)C)c4ccccc4)C[C@@](O)([C@@H](OC(=O)c4ccccc4)[C@@H]21)C3(C)C (stereo not given in full),inactive,inactive,"inconclusive: 0.296 µM [cytotoxic, full curve, poor fit]",,,inactive,inactive,,,,
C[C@H](CCC(=O)O)[C@H]1CC[C@H]2[C@H]3[C@@H](CC[C@]12C)[C@@]1(C)CC[C@@H](O)C[C@H]1C[C@@H]3O,"inconclusive: 11.8 µM [cytotoxic, partial curve, poor fit]","inconclusive: 18.7 µM [cytotoxic, partial curve, poor fit]",inactive,,,,"inconclusive: 0.166 µM [cytotoxic, full curve, poor fit]","inconclusive: 37.2 µM [cytotoxic, single point]",,,
COc1nc(N)nc2c1ncn2[C@@H]1O[C@H](CO)[C@@H](O)[C@@H]1O,"inconclusive: 16.6 µM [cytotoxic, partial curve, poor fit]",inactive,"inconclusive: 0.0019 µM [rising, full curve, poor fit]",inactive,,inactive,,inactive,,,
NC(=O)N1CCC(CC(=O)N2CCC([C@H]3c4ncc(Br)cc4CCc4cc(Cl)cc(Br)c43)CC2)CC1,active: 0.0372 µM,active: 5.9 µM,active: 7.43 µM,,"inconclusive: 18.7 µM [cytotoxic, partial curve, poor fit]",,,,active: 10.5 µM,,
CCC(C(=O)O)C1CCC(C)C(C(C)C(O)C(C)C(=O)C(CC)C2OC3(C=CC(O)[C@@]4(CC[C@](C)(C5CC[C@@](O)(CC)C(C)O5)O4)O3)C(C)CC2C)O1 (stereo not given in full),active: 14.8 µM,active: 0.332 µM,,active: 7.43 µM,active: 0.743 µM,,active: 1.05 µM,active: 0.743 µM,active: 8.33 µM,,
O=C1C(c2c(O)[nH]c3ccccc23)=Nc2ccccc21,inactive,"inconclusive: 0.0132 µM [cytotoxic, full curve, poor fit]",inactive,,,,active: 6.62 µM,"inconclusive: 23.5 µM [cytotoxic, single point]",,,
N=C(N)c1ccc2cc(OC(=O)c3ccc(N=C(N)N)cc3)ccc2c1,"inconclusive: 20.9 µM [cytotoxic, partial curve, poor fit]",inactive,"inconclusive: 18.7 µM [cytotoxic, partial curve]",,,,"inconclusive: 3.32 µM [cytotoxic, full curve, poor fit]",inactive,,,
CC1(C)O[C@H]2CC(=O)OC[C@]23[C@H]2CC[C@@]4(C)[C@H](c5ccoc5)OC(=O)[C@H]5O[C@]54[C@]2(C)C(=O)C[C@@H]13,inactive,inactive,inconclusive: 0.001 µM,,,inactive,"inconclusive: 0.118 µM [rising, full curve, poor fit]",inactive,,,
CN1CCCN(C(=O)c2cccc(-c3ccc(C=C4C(=O)Nc5ccc(Cl)cc54)o3)c2)CC1,"inconclusive: 37.2 µM [cytotoxic, single point]",active: 6.62 µM,,active: 8.33 µM,,,active: 18.7 µM,,active: 26.4 µM,,

# Part of the list above, showing only Potency [9], Potency [1] and Potency [2]:
Structure (SMILES),Potency [9],Potency [1],Potency [2]
Cc1ccc2c(c1)c1c(n2CCc2ccc(C)nc2)CCN(C)C1,,"inconclusive: 0.0296 µM [rising, full curve, poor fit]",inactive
CC(=O)NC[C@H]1CN(c2ccc(N3CCOCC3)c(F)c2)C(=O)O1,,"inconclusive: 2.96 µM [cytotoxic, full curve, poor fit]","inconclusive: 0.469 µM [cytotoxic, full curve, poor fit]"
